# At least one read-out could not be matched to a standard name with certainty.
# Protein sequences, listed by entry. Tags and fused reporters are not part of them. Lines headed by an entry give the natural chain unless they say otherwise; changes in a name come on top.
# UniProt P01019: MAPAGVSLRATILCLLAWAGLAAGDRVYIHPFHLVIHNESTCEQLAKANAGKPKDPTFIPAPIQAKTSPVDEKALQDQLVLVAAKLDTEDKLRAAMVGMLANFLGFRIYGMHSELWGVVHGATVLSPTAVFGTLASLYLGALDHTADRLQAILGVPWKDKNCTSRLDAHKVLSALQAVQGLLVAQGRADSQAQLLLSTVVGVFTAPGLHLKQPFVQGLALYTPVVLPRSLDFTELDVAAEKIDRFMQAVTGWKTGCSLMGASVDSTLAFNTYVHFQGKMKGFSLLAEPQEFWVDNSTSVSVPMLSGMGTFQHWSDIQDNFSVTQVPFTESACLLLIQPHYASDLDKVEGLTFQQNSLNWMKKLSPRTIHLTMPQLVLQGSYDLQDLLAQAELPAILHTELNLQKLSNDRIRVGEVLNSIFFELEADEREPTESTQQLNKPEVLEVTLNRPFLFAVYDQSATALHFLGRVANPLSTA
# System: bovine femoral artery, contraction to angiotensin I
# Assay: contraction of the bovine femoral artery to angiotensin I
# Details: n=11; read-out: average ED50 of contraction to angiotensin I
# Protocol: The data are expressed as a percentage of the maximal response to norepinephrine (10^-6 M) and are shown as mean ±SEM in each group (n=7).
# Blood Vessel Preparation. Bovine coronary or femoral arteries were obtained from an abattoir immediately after sacrifice of two- to four-week-old calves. Immediately after removal, the vessel was placed in ice-cold physiologic salt solution (PSS) containing 118.3 mM NaCl, 4.7 mM KCl, 2.5 mM CaCl2, 1.2 mM MgSO4, 1.2 mM KH2 PO4, 25.0 mM NaHCO3, 11.1 mM glucose, and 0.026 mM calcium disodium (ethylenedinitrilo)-tetraacetate. The vessels were then cleaned of adventitial tissue and cut into rings of approximately 5 mm lengths. When called for by the protocol, endothelium was removed from a ring by gently rubbing the luminal surface with a watchmaker's forceps. […] The rings were connected to force transducers (Grass FT03C, Quincy, Mass.) and changes in isometric force recorded continuously (Grass Polygraph Model 79B) over a period of 90 minutes. The optimal length-tension relationship was determined for each ring by observing the response to 10^-6 M norepinephrine after increments in tension of 0.5 gm. The functional integrity of the endothelium was assessed by contracting the vessel with 10^-6 M norepinephrine and then observing the response to 3×10^-7 M acetylcholine chloride.
substance,measurement,value
"angiotensin I: agonist; converted by ACE to angiotensin II by removal of the carboxy terminal His-Leu (DRVYIHPFHL; Angiotensin-1; UniProt P01019 25-34, looked up)",EC50,8.1 nM
